Experiments:
Design in all cases: species or system mouse (Balb/c)
MAb 4147-19-4 [1] = test: ELISA determination of triasulfurone added to soil extracts, MAb 4147-19-4 (Table 2); settings: Method A
MAb 4149-1-1 = test: ELISA determination of triasulfurone added to soil extracts, MAb 4149-1-1 (Table 2); settings: Method A
MAb 4147-19-4 [2] = test: soil-matrix effect, comparison of extraction methods, MAb 4147-19-4 (Table 3)
MAb 4147-19-4 [3] = test: recovery of triasulfurone from enriched soil samples, MAb 4147-19-4 (Table 4); settings: Method C
[4] = Collombey soil extract, 1 ppb added
[5] = Les Evouettes soil extract, 1 ppb added
[6] = Speyer soil extract, 10 ppb added (so in the source)
[7] = Stein soil extract, 0.1 ppb added
[8] = Stein soil extract, 0.3 ppb added
[9] = Stein soil extract, 1 ppb added
[10] = Vetroz soil extract, 0.1 ppb added
[11] = Vetroz soil extract, 0.3 ppb added
[12] = Vetroz soil extract, 1 ppb added
[13] = Vetroz (Expt. 2), 0.1 ppb added
[14] = Vetroz (Expt. 2), 0.3 ppb added

COc1nc(C)nc(NC(=O)NS(=O)(=O)c2ccccc2OCCCl)n1 [triasulfurone, 3-(6-methoxy-4-methyl-1,3,5-triazin-2-yl)-1-[2-(2-chloroethoxy)-phenylsulfonyl]-urea]
triasulfurone found (MAb 4147-19-4 [1]; [4]): 99% | triasulfurone measured (MAb 4147-19-4 [1]; [4]): 1.08 ppb | triasulfurone found (MAb 4147-19-4 [1]; [5]): 81% | triasulfurone measured (MAb 4147-19-4 [1]; [5]): 0.91 ppb | triasulfurone found (MAb 4147-19-4 [1]; [6]): 99% | triasulfurone measured (MAb 4147-19-4 [1]; [6]): 1.03 ppb | triasulfurone found (MAb 4147-19-4 [1]; [7]): 70% | triasulfurone measured (MAb 4147-19-4 [1]; [7]): 0.13 ppb | triasulfurone found (MAb 4147-19-4 [1]; [8]): 110% | triasulfurone measured (MAb 4147-19-4 [1]; [8]): 0.39 ppb | triasulfurone found (MAb 4147-19-4 [1]; [9]): 108% | triasulfurone measured (MAb 4147-19-4 [1]; [9]): 1.14 ppb | triasulfurone found (MAb 4147-19-4 [1]; [10]): 90% | triasulfurone measured (MAb 4147-19-4 [1]; [10]): 0.26 ppb | triasulfurone found (MAb 4147-19-4 [1]; [11]): 90% | triasulfurone measured (MAb 4147-19-4 [1]; [11]): 0.44 ppb | triasulfurone found (MAb 4147-19-4 [1]; [12]): 94% | triasulfurone measured (MAb 4147-19-4 [1]; [12]): 1.11 ppb | triasulfurone found (MAb 4149-1-1; [4]): 98% | triasulfurone measured (MAb 4149-1-1; [4]): 1.04 ppb | triasulfurone found (MAb 4149-1-1; [5]): 89% | triasulfurone measured (MAb 4149-1-1; [5]): 1.00 ppb | triasulfurone found (MAb 4149-1-1; [6]): 88% | triasulfurone measured (MAb 4149-1-1; [6]): 0.95 ppb | triasulfurone found (MAb 4149-1-1; [7]): 130% | triasulfurone measured (MAb 4149-1-1; [7]): 0.20 ppb | triasulfurone found (MAb 4149-1-1; [8]): 107% | triasulfurone measured (MAb 4149-1-1; [8]): 0.39 ppb | triasulfurone found (MAb 4149-1-1; [9]): 97% | triasulfurone measured (MAb 4149-1-1; [9]): 1.04 ppb | triasulfurone found (MAb 4149-1-1; [10]): 60% | triasulfurone measured (MAb 4149-1-1; [10]): 0.23 ppb | triasulfurone found (MAb 4149-1-1; [11]): 100% | triasulfurone measured (MAb 4149-1-1; [11]): 0.47 ppb | triasulfurone found (MAb 4149-1-1; [12]): 93% | triasulfurone measured (MAb 4149-1-1; [12]): 1.10 ppb | triasulfurone measured (MAb 4147-19-4 [2]; Collombey, extraction method A): 0.09 ppb | triasulfurone measured (MAb 4147-19-4 [2]; Collombey, extraction method C): 0.03 ppb | triasulfurone measured (MAb 4147-19-4 [2]; Les Evouettes, extraction method A): 0.10 ppb | triasulfurone measured (MAb 4147-19-4 [2]; Les Evouettes, extraction method B): 0.02 ppb | triasulfurone measured (MAb 4147-19-4 [2]; Les Evouettes, extraction method C (Expt. 1)): 0.06 ppb | triasulfurone measured (MAb 4147-19-4 [2]; Les Evouettes, extraction method C (Expt. 2)): 0.07 ppb | triasulfurone measured (MAb 4147-19-4 [2]; Speyer, extraction method A): 0.04 ppb | triasulfurone measured (MAb 4147-19-4 [2]; Speyer, extraction method C): 0.02 ppb | triasulfurone measured (MAb 4147-19-4 [2]; Stein, extraction method A): 0.06 ppb | triasulfurone measured (MAb 4147-19-4 [2]; Stein, extraction method C): 0.01 ppb | triasulfurone measured (MAb 4147-19-4 [2]; Vetroz, extraction method A): 0.17 ppb | triasulfurone measured (MAb 4147-19-4 [2]; Vetroz, extraction method B): 0.03 ppb | triasulfurone measured (MAb 4147-19-4 [2]; Vetroz, extraction method C (Expt. 1)): 0.02 ppb | triasulfurone measured (MAb 4147-19-4 [2]; Vetroz, extraction method C (Expt. 2)): 0.07 ppb | triasulfurone found (MAb 4147-19-4 [3]; Les Evouettes, 0.5 ppb added): 0.37 ppb | triasulfurone found (%) (MAb 4147-19-4 [3]; Les Evouettes, 0.5 ppb added): 62% | triasulfurone found (MAb 4147-19-4 [3]; Les Evouettes, 1 ppb added): 0.71 ppb | triasulfurone found (%) (MAb 4147-19-4 [3]; Les Evouettes, 1 ppb added): 65% | triasulfurone found (MAb 4147-19-4 [3]; Les Evouettes, 10 ppb added): 7.41 ppb | triasulfurone found (%) (MAb 4147-19-4 [3]; Les Evouettes, 10 ppb added): 74% | triasulfurone found (MAb 4147-19-4 [3]; Stein, 0.1 ppb added): 0.12 ppb | triasulfurone found (%) (MAb 4147-19-4 [3]; Stein, 0.1 ppb added): 110% | triasulfurone found (MAb 4147-19-4 [3]; Stein, 0.3 ppb added): 0.25 ppb | triasulfurone found (%) (MAb 4147-19-4 [3]; Stein, 0.3 ppb added): 80% | triasulfurone found (MAb 4147-19-4 [3]; Stein, 1 ppb added): 0.63 ppb | triasulfurone found (%) (MAb 4147-19-4 [3]; Stein, 1 ppb added): 62% | triasulfurone found (MAb 4147-19-4 [3]; [13]): 0.19 ppb | triasulfurone found (%) (MAb 4147-19-4 [3]; [13]): 120% | triasulfurone found (MAb 4147-19-4 [3]; [14]): 0.31 ppb | triasulfurone found (%) (MAb 4147-19-4 [3]; [14]): 80% | triasulfurone found (MAb 4147-19-4 [3]; Vetroz (Expt. 2), 1 ppb added): 0.60 ppb | triasulfurone found (%) (MAb 4147-19-4 [3]; Vetroz (Expt. 2), 1 ppb added): 53% | triasulfurone found (MAb 4147-19-4 [3]; Vetroz, 0.1 ppb added): 0.14 ppb | triasulfurone found (%) (MAb 4147-19-4 [3]; Vetroz, 0.1 ppb added): 120% | triasulfurone found (MAb 4147-19-4 [3]; Vetroz, 0.5 ppb added): 0.34 ppb | triasulfurone found (%) (MAb 4147-19-4 [3]; Vetroz, 0.5 ppb added): 64% | triasulfurone found (MAb 4147-19-4 [3]; Vetroz, 1 ppb added): 0.68 ppb | triasulfurone found (%) (MAb 4147-19-4 [3]; Vetroz, 1 ppb added): 66% | triasulfurone found (MAb 4147-19-4 [3]; Vetroz, 10 ppb added): 6.60 ppb | triasulfurone found (%) (MAb 4147-19-4 [3]; Vetroz, 10 ppb added): 66%

From US5359135A, “Triasulfurone compounds” (priority 1990, dated 1994)
